Experimental data: PubChem BioAssay AID493246 (Drosophila RNAi Screening Center, 2011)

- Purpose: 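Identify essential fly genes by loss of cell viability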 (primary screen)
- Cells: Drosophila Kc and S2R+ cells
- Reagents: long dsRNA against Drosophila genes
- Read-out: 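Raw, unnormalised count of remaining cells in each well; per-plate z-scores of cell number underlie the calls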
- Reading the numbers: Kc cell number and S2R+ cell number: higher = more cells remaining
- Active means: 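Counted as a hit if cell number falls by a z-score of at least 3 within its plate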
In all, the deposit lists about 21,000 reagents; below is an unselected part of those that have a named target and a result. Over the whole deposit, 429 (2%) got an active call. 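Values are raw and not normalised between plates; calls rest on per-plate z-scores that were not deposited.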 The record does not give: the amount of reagent, the time to read-out.

Oseg6 (GeneID 37245) [DRSC06066]
- Kc cell number, rep 1: 1.47e6
- Kc cell number, rep 2: 1.54e6
- S2R+ cell number, rep 1: 1.08e6
- S2R+ cell number, rep 2: 1.22e6
- outcome: inactive

cyp33 (GeneID 36984) [DRSC07600]
- Kc cell number, rep 1: 1.35e6
- Kc cell number, rep 2: 1.47e6
- S2R+ cell number, rep 1: 1.13e6
- S2R+ cell number, rep 2: 1.09e6
- outcome: inactive

Dph3 (GeneID 41352) [DRSC14923]
- Kc cell number, rep 1: 1.59e6
- Kc cell number, rep 2: 1.66e6
- S2R+ cell number, rep 1: 1.32e6
- S2R+ cell number, rep 2: 1.43e6
- outcome: inactive

TwdlQ (GeneID 43214) [DRSC14745]
- Kc cell number, rep 1: 1.48e6
- Kc cell number, rep 2: 1.49e6
- S2R+ cell number, rep 1: 8.95e5
- S2R+ cell number, rep 2: 9.60e5
- outcome: inactive

CG4741 (GeneID 37939) [DRSC04485]
- Kc cell number, rep 1: 1.49e6
- Kc cell number, rep 2: 1.58e6
- S2R+ cell number, rep 1: 1.38e6
- S2R+ cell number, rep 2: 1.52e6
- outcome: inactive

Nup133 (GeneID 42680) [DRSC16150]
- Kc cell number, rep 1: 1.52e6
- Kc cell number, rep 2: 1.65e6
- S2R+ cell number, rep 1: 1.10e6
- S2R+ cell number, rep 2: 1.23e6
- outcome: inactive

CG10011 (GeneID 43387) [DRSC14174]
- Kc cell number, rep 1: 5.68e5
- S2R+ cell number, rep 1: 7.24e5
- outcome: inactive

nyo (GeneID 43716) [DRSC15029]
- Kc cell number, rep 1: 1.65e6
- Kc cell number, rep 2: 1.64e6
- S2R+ cell number, rep 1: 1.09e6
- S2R+ cell number, rep 2: 1.16e6
- outcome: inactive

nyo (GeneID 43716) [DRSC15030]
- Kc cell number, rep 1: 1.62e6
- Kc cell number, rep 2: 1.69e6
- S2R+ cell number, rep 1: 9.53e5
- S2R+ cell number, rep 2: 1.03e6
- outcome: inactive

CG16894 (GeneID 37280) [DRSC06634]
- Kc cell number, rep 1: 1.42e6
- Kc cell number, rep 2: 1.42e6
- S2R+ cell number, rep 1: 1.14e6
- S2R+ cell number, rep 2: 1.18e6
- outcome: inactive

Rpt3R (GeneID 41190) [DRSC16501]
- Kc cell number, rep 1: 1.50e6
- Kc cell number, rep 2: 1.47e6
- S2R+ cell number, rep 1: 1.08e6
- S2R+ cell number, rep 2: 1.17e6
- outcome: inactive

ATPsynbetaL (GeneID 39761) [DRSC10503]
- Kc cell number, rep 1: 1.37e6
- Kc cell number, rep 2: 1.42e6
- S2R+ cell number, rep 1: 1.27e6
- S2R+ cell number, rep 2: 1.32e6
- outcome: inactive

Copied from the entries so far for reference:
Rpt3R (GeneID 41190) [DRSC16501]
- Kc cell number, rep 1: 1.50e6
- Kc cell number, rep 2: 1.47e6
- S2R+ cell number, rep 1: 1.08e6
- S2R+ cell number, rep 2: 1.17e6
- outcome: inactive

ATPsynbetaL (GeneID 39761) [DRSC10503]
- Kc cell number, rep 1: 1.37e6
- Kc cell number, rep 2: 1.42e6
- S2R+ cell number, rep 1: 1.27e6
- S2R+ cell number, rep 2: 1.32e6
- outcome: inactive
